# This is one part of the list. These are further read-outs of the screen, such as a control signal, another cell line or another target. No call is given for them. Compounds called inactive in the main read-out are mostly missing here. The note in brackets gives the kind of curve behind each potency; many fits are weak.
# Test: qHTS Assay for Lipid Storage Modulators in Drosophila S3 Cells;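 on cell number change: cells counted by Cell Tracker Red CMTPX staining in the red channel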
# Settings: BODIPY lipid droplet fluorescence, 18-24 h; for cell number change: measured here: cell count max response, cells fed with added oleic acid
# How it was run: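 Drosophila S3 cells got compounds at several concentrations plus oleic acid (400 uM solution). Laser-scanning cytometry with 488 nm excitation read lipid droplets at 500-530 nm and cells at 575-640 nm. Percent activity was relative to 20 uM Triacsin C.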
# [1] = measured here: lipid fluorescence (Fed channel) AC50, cells fed with added oleic acid
# [2] = measured here: cell number channel AC50, cells fed with added oleic acid
Structure (SMILES),cell number change [%],AC50 [1],AC50 [2]
CN(CC(=O)Nc1ccc(N2CCOCC2)cc1)C(=O)c1cc2c(s1)CCCC2,-20.8,"0.00461 µM [falling, full curve, poor fit]",
CC(=O)c1cccc(NC(=S)N2CCN(c3ccccn3)CC2)c1,-8.42,"29.1 µM [falling, single point]",
Cc1cc(N/N=C/c2ccncc2)nc2ccccc12,17.2,"0.112 µM [rising, full curve, poor fit]",
COc1ccc(Cl)cc1NC(=O)COC(=O)C(CC(C)C)N1C(=O)C2CC=CCC2C1=O (stereo not drawn),-31.3,,"16.4 µM [falling, single point]"
COc1cc(S(=O)(=O)N2CCN(c3ccccc3F)CC2)ccc1Cl,280,"3.66 µM [rising, partial curve]","16.4 µM [rising, partial curve]"
COC(=O)c1c(SCC(=O)NC2CCCCC2)[nH]c2ccccc2c1=O,-47.7,"29.1 µM [falling, single point]","29.1 µM [falling, single point]"
COc1ccc(-n2nc(C(=O)NCC(=O)NCCCN3CCN(C)CC3)c3ccccc3c2=O)cc1,3.6,"29.1 µM [rising, single point]",
C/C(=C\C(=O)c1ccccc1)Nc1cccc(O)c1,3.39,"16.4 µM [falling, single point]",
CCOc1ccc(NC(=O)c2ccccc2NC(=O)CN2CCCCCC2)cc1,-55.4,,"29.1 µM [falling, single point]"
CC(=O)NC(Cc1c[nH]c2ccccc12)C(=O)NCc1ccco1 (stereo not drawn),-1.26,"0.206 µM [rising, single point]",
CC(C)(C)c1ccc(OC(=O)Cn2c(C(F)(F)F)nc3ccccc32)cc1,,"6.51 µM [falling, full curve]",
CCCCC(=O)Nc1ccc(F)c(Cl)c1,-91.6,"20.6 µM [falling, single point]","29.1 µM [falling, single point]"
Cc1cccc2nc(CSc3nc4cc([N+](=O)[O-])ccc4s3)cn12,13.3,"0.164 µM [falling, full curve, poor fit]",
N#CCc1ccc(Oc2ncc(C(F)(F)F)cc2Cl)cc1,21.4,,
O=C(Nc1cccc(S(=O)(=O)N2CCCC2)c1)c1cccnc1,-23.5,"29.1 µM [falling, single point]",
O=C(NCCCc1ccccc1)c1ccc(Br)o1,14.5,,"0.731 µM [rising, single point]"
O=C(O)c1ccc(CNC(=O)C23CC4CC(CC(C4)C2)C3)cc1,21.4,,
CC(=O)Nc1ccc(NC(=O)COC(=O)Cc2cccs2)cc1,-38,"29.1 µM [falling, single point]","1.64 µM [falling, full curve]"
O=C1OC(c2ccccc2)=NC12CC2c1ccc(Cl)cc1 (stereo not drawn),-2.38,"16.4 µM [falling, partial curve]",
Cc1ccc(-c2nnn(CC(=O)Nc3ccc(S(=O)(=O)N4CCC(C)CC4)cc3)n2)cc1,-65.3,"8.2 µM [falling, partial curve]","6.51 µM [falling, partial curve]"

# Not a retest: an excerpt of the list.
Structure (SMILES),cell number change [%],AC50 [1],AC50 [2]
CC(=O)NC(Cc1c[nH]c2ccccc12)C(=O)NCc1ccco1 (stereo not drawn),-1.26,"0.206 µM [rising, single point]",
CC(C)(C)c1ccc(OC(=O)Cn2c(C(F)(F)F)nc3ccccc32)cc1,,"6.51 µM [falling, full curve]",
CCCCC(=O)Nc1ccc(F)c(Cl)c1,-91.6,"20.6 µM [falling, single point]","29.1 µM [falling, single point]"
Cc1cccc2nc(CSc3nc4cc([N+](=O)[O-])ccc4s3)cn12,13.3,"0.164 µM [falling, full curve, poor fit]",
N#CCc1ccc(Oc2ncc(C(F)(F)F)cc2Cl)cc1,21.4,,

# Later entries

Structure (SMILES),cell number change [%],AC50 [1],AC50 [2]
COC(=O)[C@@H](Cc1c[nH]c2ccccc12)NC(=O)c1ccc2c(c1)OCO2,-9.22,,
CCC(C)NCC(O)(c1ccc(Cl)cc1)c1ccc(Cl)cc1 (stereo not drawn),22.5,,
CCOC(=O)C1CCN(S(=O)(=O)c2ccc(OCC)cc2)CC1,-1.15,"32.6 µM [rising, single point]",
CCN(CC(=O)Nc1ccc(NC(C)=O)cc1)C(=O)CSCc1c(C)noc1C,-2.55,"25.9 µM [falling, partial curve]",
COc1ccc(N/C(=C(/C(Cl)=C(Cl)Cl)[N+](=O)[O-])n2nnc3ccccc32)cc1OC,58.4,"29.1 µM [rising, partial curve]","11.6 µM [rising, partial curve]"
Cn1c(NC(=O)Cc2cccs2)cc(=O)n(C)c1=O,-11.9,"0.461 µM [rising, partial curve]",
O=C(CCCn1cnc([N+](=O)[O-])n1)Nc1ccc(F)c(Cl)c1,24.3,"0.13 µM [falling, full curve, poor fit]",
Cc1ccc2c(C(=O)CN3CCN(c4ccccc4)CC3)c(C)[nH]c2c1,-1.93,"0.0366 µM [rising, full curve, poor fit]",
O=C(O)[C@H](Cc1ccccc1)NC(=O)N1CCCCCC1,61.3,,"29.1 µM [rising, single point]"
COc1ccc(-n2nc(C(=O)NCC(=O)Nc3cccc(NC(C)=O)c3)c3ccccc3c2=O)cc1,,,"0.082 µM [rising, full curve, poor fit]"
Cc1ccc(C)c(OCc2cc(C(=O)NC3CCN(Cc4ccccc4)CC3)no2)c1,-17.6,"6.51 µM [falling, single point]",
CCOC(CNc1ncnc2sc(-c3ccccc3)cc12)OCC,14.4,,
CCN(C(=O)c1cccnc1SC)C12CC3CC(CC(C3)C1)C2,22.6,,
CC(=O)c1ccc(Cl)c(Cl)c1Cl,-33.3,"0.092 µM [rising, full curve, poor fit]","25.9 µM [falling, single point]"
O=C(CN(Cc1ccco1)C(=O)Cn1nnc(-c2cccs2)n1)NCc1ccccc1,33.7,"0.731 µM [rising, single point]","16.4 µM [rising, single point]"
COc1cc(C2C(C(=O)/C=C/c3ccccc3)=C(O)C(=O)N2c2ccccn2)ccc1O (stereo not drawn),-13.7,"1.46 µM [falling, partial curve]","4.61 µM [falling, single point]"
Cn1c(=O)c(Sc2ccc(Cl)cc2)c(O)c2ccccc21,14.6,"18.4 µM [rising, single point]",
COC(=O)c1ccc(N2C(=O)CC(N3CCOCC3)C2=O)cc1 (stereo not drawn),-9.11,"0.00461 µM [rising, full curve, poor fit]",
O=C(CC1(O)C(=O)Nc2ccccc21)c1ccc(-n2cnnn2)cc1 (stereo not drawn),-14.2,"0.116 µM [falling, full curve, poor fit]",
COC(=O)C1=C(C)NC(C)=C(C(=O)OC)C1C(=O)OCC(=O)c1ccc(Br)cc1,-7.04,,

Structure (SMILES),cell number change [%],AC50 [1],AC50 [2]
COc1ccc(S(=O)(=O)NC(C)C(=O)NCc2ccccn2)cc1OC (stereo not drawn),-0.855,"0.082 µM [falling, full curve, poor fit]",
CCCc1ccc(OCC(=O)Nc2cc(S(=O)(=O)CC)ccc2O)cc1,7.03,"0.231 µM [rising, full curve]",
CC(C)C[C@H](NC(=O)c1[nH]cnc1C(=O)Nc1ccccc1)C(=O)OC(C)(C)C,-15.9,"2.31 µM [falling, partial curve]",
CCN(C(=O)COC(=O)CCC(=O)c1cccs1)c1c(N)n(Cc2ccccc2)c(=O)[nH]c1=O,-16,"23.1 µM [falling, partial curve]",
COCCn1c(SCC(=O)NN2C(=O)NC(C)(c3ccccc3)C2=O)nnc1-c1ccncc1 (stereo not drawn),-4.82,"14.6 µM [rising, partial curve]",
Cc1c(C(=O)NCc2ccccn2)sc2nc(-c3ccccc3)cn12,,"0.116 µM [rising, full curve, poor fit]","0.13 µM [rising, full curve, poor fit]"
O=Cc1ccc(OC(=O)c2cc(Cl)nc3ccccc23)cc1,-29.9,"0.00517 µM [falling, full curve, poor fit]",
CN(CC(=O)NCCc1ccccc1)Cc1ccco1,20.8,"16.4 µM [falling, single point]",
O=C(Nc1ccc(NC(=O)C2CCCCC2)nc1)c1ccco1,-16.5,"6.51 µM [falling, single point]",
COc1ccc(NS(=O)(=O)c2cccc(C(=O)OCC(=O)Nc3cc(C)on3)c2)cc1,-74.6,,
CN(CC(=O)NC1CCCCC1)S(=O)(=O)c1cccc2cccnc12,26.1,"0.184 µM [rising, full curve, poor fit]",
CCN(CC)C(=O)c1cc2cc([N+](=O)[O-])ccc2s1,-25.1,,"1.46 µM [falling, full curve, poor fit]"
Cc1cccc(C)c1OCCSc1n[nH]c(N)n1,79.3,"1.84 µM [rising, partial curve]","0.164 µM [rising, full curve, poor fit]"
CCc1ccc(NC(=O)CNC(=O)c2cn(-c3ccccc3OC)c(=O)c3ccccc23)cc1,-0.879,,
N#CC1=C(N)NC(SCC(=O)c2ccc(Br)cc2)=C(C#N)C12CCCCC2,39.9,"1.16 µM [rising, partial curve]","0.92 µM [rising, partial curve]"
COc1ccc(S(=O)(=O)Nc2ccccc2C(=O)N2CCOCC2)cc1Cl,-33.7,"10.3 µM [falling, partial curve, poor fit]","18.4 µM [falling, single point]"
COCCn1nnnc1C(c1ccccn1)N1CCN(c2cc(Cl)ccc2C)CC1 (stereo not drawn),13.1,"6.51 µM [rising, single point]",
O=C(O)C1CCC(=O)N1C1c2ccccc2Oc2ccccc21 (stereo not drawn),14.3,"0.00461 µM [falling, full curve, poor fit]",
CCCS(=O)(=O)c1nc(S(=O)(=O)c2ccc(C)cc2)c(N2CC(C)OC(C)C2)s1 (stereo not drawn),,"4.11 µM [falling, partial curve]",

# — PubChem BioAssay AID2685 (National Center for Advancing Translational Sciences (NCATS), 2010)
